# Hit rate of the full screen: of about 390,000 compounds, about 610 (0.16%) were called active. The shares of active, inactive and inconclusive entries below differ from those in the screen. Calls come from the whole dose curve; as a rule, active = well fitted inhibition curve with a large enough effect; inconclusive = small, poorly fitted or top-dose-only effect, or effect the other way, or another doubt; inactive = no such curve, though single readings can be large or run the other way. A potency beside an inconclusive call is a rough fit, not a confirmed value.
# Assay: Nrf2 qHTS screen for inhibitors: counterscreen for cytotoxicity
# Conditions: A549 ARE-Fluc cells, CellTiter-Fluor viability, 18-24 h; series mostly up to 46 µM
# Outline: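 A549 ARE-Fluc cells in 5% FBS OPTI-MEM, 5000 cells/well, rested 2 h then exposed to compounds in concentration-response for 18-24 h at 37 °C. Viability by CellTiter-Fluor fluorescence (Ex 405/Em 525) after 30 min; luciferase luminescence (BugLite, 15 min, RT) read afterwards.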
# Potency is the fitted concentration of half-maximal effect.
row,SMILES,Potency
1,Cc1ccc(S(=O)(=O)NCc2ccncc2)cc1C(=O)NCC(C)C,"inconclusive: 7.31 µM [falling, partial curve, poor fit]"
2,CCN(CC)CCCNC(=O)c1cn(CC(C)C)c(=O)c2c1c1ccccc1n2C,inactive
3,Cc1c(NC(=O)c2cccc(-c3cc4ccccc4oc3=O)c2)cccc1-c1nc2ncccc2o1,inactive
4,O=C(Nc1scc(-c2cccs2)c1C(=O)O)c1cccs1,"inconclusive: 32.6 µM [falling, partial curve, poor fit]"
5,Cc1onc(-c2ccccc2)c1C(=O)N/N=C/c1c[nH]c2ccccc12,"inconclusive: 18.4 µM [falling, single point]"
6,Cc1ccc(NC(=O)CSc2nnc(-c3ccncc3)n2C)cc1S(=O)(=O)N1CCOCC1,inactive
7,CCSc1nnc(NC(=O)COc2ccccc2[N+](=O)[O-])s1,inactive
8,CCOC(=O)COc1ccc2c(c1)C(=O)CC1(CCN(C(C)=O)CC1)O2,inactive
9,COc1ccc(C2c3ccc4ccccc4c3Oc3ncn(CCCO)c(=N)c32)cc1 (centres undefined),"inconclusive: 23.1 µM [falling, single point]"
10,COc1ccc(-c2cnc(OC(C)(C)C)nc2OC(C)(C)C)cc1OC,"inconclusive: 29.1 µM [falling, single point]"
11,N#Cc1nc(Nc2cc(F)cc(Cl)c2)nc(NC2CCCC2)n1,"inconclusive: 29.1 µM [falling, partial curve, poor fit]"
12,COc1c(Cl)cc(Cl)cc1/C=C/C(=O)c1ccc(NC(=O)c2cccs2)cc1,"inconclusive: 29.1 µM [falling, single point]"
13,Cc1cc(C)cc(Nc2cc(C(=O)NCCCN(C)C3CCCCC3)c3ccccc3n2)c1,"inconclusive: 29.1 µM [falling, single point]"
14,COc1ccc(NS(=O)(=O)c2ccc(-c3cnc(C4CC4)o3)cc2)cc1Cl,"inconclusive: 7.31 µM [falling, partial curve, poor fit]"
15,CC(=O)c1cccc(CN2CCCC(CCC(=O)NCc3ccc(F)c(F)c3)C2)c1 (centres undefined),"inconclusive: 7.31 µM [activator, partial curve]"
16,Cc1c(O)ccc2c(CC(=O)N[C@@H](Cc3ccc(O)cc3)C(=O)O)cc(=O)oc12,"inconclusive: 32.6 µM [activator, single point]"
17,CCCCCCCCC(=O)N/N=C(\C)c1ccc(O)cc1O,"inconclusive: 20.6 µM [activator, single point]"
18,Cc1ccc(C(=O)Nc2ccc(Cl)cn2)cc1S(=O)(=O)N1CCOCC1,inactive
19,COc1ccc(N(C(=O)c2ccccc2C)S(=O)(=O)c2cccs2)cc1,inactive
20,Cc1ccc(S(=O)(=O)N2CCCCC2)cc1C(=O)N(C)CC(=O)Nc1ccc(Cl)c(C(F)(F)F)c1,"inconclusive: 29.1 µM [falling, single point]"
21,CCCOc1cccc(C2c3c(-c4ccccc4O)n[nH]c3C(=O)N2Cc2ccco2)c1 (centres undefined),"inconclusive: 29.1 µM [falling, single point]"
22,Cc1ccc(C(=O)N/C(=C\c2ccc(Br)cc2)c2nc(=S)[nH][nH]2)cc1,active: 25.9 µM
23,CCOC(=O)Nc1ccc2c(CNC(C)c3ccccc3OC)cc(=O)oc2c1 (centres undefined),"inconclusive: 18.4 µM [falling, single point]"

# Individual results from the entries so far.
# Value of Cc1ccc(S(=O)(=O)NCc2ccncc2)cc1C(=O)NCC(C)C under Potency: inconclusive: 7.31 µM [falling, partial curve, poor fit]
# Value of Cc1ccc(NC(=O)CSc2nnc(-c3ccncc3)n2C)cc1S(=O)(=O)N1CCOCC1 under Potency: inactive

# Next results follow:

row,SMILES,Potency
1,NC(=S)N=Nc1c(O)cc(O)c2[nH]c(=O)ccc12,"inconclusive: 16.4 µM [falling, partial curve, poor fit]"
2,COc1ccc(C2C(C#N)=C3NC(=O)c4c(sc5c4CCCCC5)N3C3=C2C(=O)CC(C)(C)C3)cc1 (centres undefined),"inconclusive: 18.4 µM [falling, partial curve]"
3,Cc1ccc(C)c(S(=O)(=O)c2nnn3c2nc(N2CCCC2)c2sccc23)c1,inactive
4,CCC(C)NC(=O)C1CCN(C(=O)c2cc3sccc3n2Cc2ccc(Cl)cc2)CC1 (centres undefined),"inconclusive: 9.2 µM [falling, partial curve]"
5,CCNc1ccc([N+](=O)[O-])cc1,"inconclusive: 14.6 µM [falling, partial curve, poor fit]"
6,O=C(Nc1ccc(N2CCCCCC2)cc1)c1ccccc1Cl,inactive
7,O=C(CSc1nc2ccccc2c(=O)n1Cc1ccco1)N1CCCCCC1,"inconclusive: 29.1 µM [falling, single point]"
8,CCOc1ccc(C(C)C)cc1S(=O)(=O)Nc1cccc(-c2ccc(N3CCOCC3)nn2)c1,inactive
9,CN1/C(=C\C=C2/SC(=S)N(CC(=O)O)C2=O)C(C)(C)c2ccccc21,active: 9.2 µM
10,Cc1cccn2c(=O)c(/C=C(\C#N)C(N)=O)c(N3CCN(c4cccc(Cl)c4)CC3)nc12,"inconclusive: 29.1 µM [falling, single point]"
11,COc1ccc(CCNC(=O)CCn2c(=O)c3ccccc3n(CC(=O)Nc3cccc(C)c3)c2=O)cc1OC,inactive
12,NC1=NC(=O)/C(=C/c2cc(Br)c(O)c(Br)c2)S1,"inconclusive: 18.4 µM [falling, partial curve]"
13,O=C(Nc1ccc(N2CCN(C(=O)c3cccs3)CC2)c(Cl)c1)c1ccco1,"inconclusive: 29.1 µM [falling, single point]"
14,CC(C)S(=O)(=O)c1oc(-c2ccc(F)cc2)nc1S(=O)(=O)c1ccc(F)cc1,"inconclusive: 29.1 µM [falling, single point]"
15,Cc1cccc(OCC(=O)N(Cc2cccc(Cl)c2)Cc2ccco2)c1C,"inconclusive: 23.1 µM [activator, partial curve, poor fit]"
16,Cc1cc(-c2cc(C(=O)NCc3ccccc3)on2)nc(S(C)(=O)=O)n1,"inconclusive: 29.1 µM [falling, single point]"
17,CC(=O)C1C(c2ccc(O)cc2)NC(=O)NC1(O)C(F)(F)F (centres undefined),inactive
18,OC(COc1ccc(OCC(O)CN2CCCCC2)cc1)CN1CCCCC1 (centres undefined),"inconclusive: 9.2 µM [falling, partial curve]"
19,O=C(Cn1cnc2c(nnn2Cc2ccccc2F)c1=O)OCc1ccccc1,"inconclusive: 20.6 µM [activator, partial curve, poor fit]"
20,Cc1c(Cl)cccc1Nc1nc(N)nc(CSc2ncccn2)n1,inactive
21,Cc1cc(/C=C2/SC(=O)N(CC(=O)N3CCCC3)C2=O)c(C)n1C,"inconclusive: 6.51 µM [falling, partial curve, poor fit]"
22,CC(C)c1ccc(NC(=O)[C@@H](NC(=O)N2CC(=O)Nc3ccccc32)C(C)C)cc1,"inconclusive: 14.6 µM [falling, single point]"
23,Cn1nnnc1Sc1ncnc2scc(-c3ccc(C(=O)OC(C)(C)C)cc3)c12,inactive

row,SMILES,Potency
1,COCCn1cnc2c(c1=O)c1nc3ccccc3nc1n2/N=C/c1cccc(OC)c1,"inconclusive: 18.4 µM [falling, single point]"
2,COc1ccccc1C1=NOC(COc2ccc3c(C)cc(=O)oc3c2)C1 (centres undefined),inactive
3,Cc1ccc(Cn2ncc3c4sc(C)cc4n(C)c3c2=O)cc1,inactive
4,Cc1ccc(Nc2nc(-c3ccncc3)nc3ccccc23)cc1,"inconclusive: 3.26 µM [activator, partial curve]"
5,CCCC[C@@H]1CNCCN1CCc1cc(C(F)(F)F)cc(C(F)(F)F)c1,"inconclusive: 20.6 µM [activator, single point]"
6,Cc1nc(Nc2ccc(F)cc2)[nH]c(=O)c1CCC(C)C,"inconclusive: 29.1 µM [falling, single point]"
7,CCOc1ccc(-c2cccc(NS(=O)(=O)c3ccc(Cl)s3)c2)nn1,inactive
8,CCC(O)C1CCN(C(=O)c2cc(COc3ccc4ncccc4c3)on2)CC1 (centres undefined),"inconclusive: 4.61 µM [falling, full curve]"
9,FC(F)(F)c1ccc(C2=Nc3ccccc3NC(c3cccs3)=N2)cc1,inactive
10,CCOC(=O)c1sc(Nc2ccccc2Cl)nc1C,inactive
11,CC1(C)OC(=O)C2(Cc3ccccc3N3CCCC32)C(=O)O1 (centres undefined),"inconclusive: 2.06 µM [activator, partial curve, poor fit]"
12,CCN1CCN(S(=O)(=O)c2ccc(Cl)c(C(=O)NCCOc3ccc(C)cc3)c2)CC1,"inconclusive: 23.1 µM [falling, partial curve, poor fit]"
13,Cc1ccc(C)c(Nc2cc(C)nc(-c3ccccc3O)n2)c1,inactive
14,CCCCNC(=S)NNC(=O)CCn1nc(C)c(Br)c1C,"inconclusive: 20.6 µM [activator, partial curve, poor fit]"
15,Cc1ccc2c(c1)c1c(c(=O)n(-c3ccccc3C)c(=O)n1Cc1ccccc1F)n2C,inactive
16,CCSc1ccccc1-c1nc(-c2ccncc2)no1,"inconclusive: 29.1 µM [activator, single point]"
17,COc1cccc2sc(Nc3nnc(-c4ccccc4Cl)o3)nc12,"inconclusive: 25.9 µM [falling, single point]"
18,CN1C(=O)/C(=C/c2cc(N=Nc3ccccc3)ccc2O)SC1=S,"inconclusive: 5.8 µM [falling, partial curve, poor fit]"
19,O=C(/C=C/c1ccc(-c2ccccc2[N+](=O)[O-])o1)c1ccc(F)cc1,inactive
20,CCCN(C(=O)NCc1noc2ccc(C)cc12)c1ccc(Cl)c(Cl)c1,inactive
21,Cn1cc(SCC(=O)Nc2nc3ccccc3s2)c2ccccc21,"inconclusive: 20.6 µM [falling, single point]"
22,Cc1ccc(-c2nc(NCCN(C)C)c3ccccc3n2)cc1,"inconclusive: 20.6 µM [falling, single point]"
23,CCOC(=O)N1CCN(C(=O)c2cnn(-c3cccc(F)c3)c2-n2cccc2)CC1,inactive

# Source: PubChem BioAssay AID504648 (National Center for Advancing Translational Sciences (NCATS), 2011)
